These are yes or no findings as the source states them, for the method shown. Binding seen in cells or lysates may run through a third protein. Some binding calls cover weakened binding; strength is not graded here. Where a sequence is shown, tags or fusion partners need not be part of it.
What was measured:
Cdc27 = Cdc27 (UniProt P30260); experiment: co-IP; borealin with Cdc27 (Fig. 2A; Fig. S1A); which protein was precipitated is not told
HA-tagged Cdc20 = HA-tagged Cdc20 (UniProt Q12834); experiment: co-IP; 293T cells co-transfected with FLAG–Borealin and HA- or Myc-tagged partner, 10 µM MG132 for 5 h; extracts immunoprecipitated with polyclonal antibody against HA or Myc, immunoblotting
HA-tagged Cdh1 = HA-tagged Cdh1 (UniProt Q9UM11); experiment: as above
Myc–CUL1 = Myc–CUL1 (UniProt Q13616); experiment: as above
Myc–CUL2 = Myc–CUL2 (UniProt Q13617); experiment: as above
Myc–CUL3 = Myc–CUL3 (UniProt Q13618); experiment: as above
Myc–CUL5 = Myc–CUL5 (UniProt Q93034); experiment: as above

By UniProt entry, the sequences of proteins in these tests, tags left out.
UniProt P30260: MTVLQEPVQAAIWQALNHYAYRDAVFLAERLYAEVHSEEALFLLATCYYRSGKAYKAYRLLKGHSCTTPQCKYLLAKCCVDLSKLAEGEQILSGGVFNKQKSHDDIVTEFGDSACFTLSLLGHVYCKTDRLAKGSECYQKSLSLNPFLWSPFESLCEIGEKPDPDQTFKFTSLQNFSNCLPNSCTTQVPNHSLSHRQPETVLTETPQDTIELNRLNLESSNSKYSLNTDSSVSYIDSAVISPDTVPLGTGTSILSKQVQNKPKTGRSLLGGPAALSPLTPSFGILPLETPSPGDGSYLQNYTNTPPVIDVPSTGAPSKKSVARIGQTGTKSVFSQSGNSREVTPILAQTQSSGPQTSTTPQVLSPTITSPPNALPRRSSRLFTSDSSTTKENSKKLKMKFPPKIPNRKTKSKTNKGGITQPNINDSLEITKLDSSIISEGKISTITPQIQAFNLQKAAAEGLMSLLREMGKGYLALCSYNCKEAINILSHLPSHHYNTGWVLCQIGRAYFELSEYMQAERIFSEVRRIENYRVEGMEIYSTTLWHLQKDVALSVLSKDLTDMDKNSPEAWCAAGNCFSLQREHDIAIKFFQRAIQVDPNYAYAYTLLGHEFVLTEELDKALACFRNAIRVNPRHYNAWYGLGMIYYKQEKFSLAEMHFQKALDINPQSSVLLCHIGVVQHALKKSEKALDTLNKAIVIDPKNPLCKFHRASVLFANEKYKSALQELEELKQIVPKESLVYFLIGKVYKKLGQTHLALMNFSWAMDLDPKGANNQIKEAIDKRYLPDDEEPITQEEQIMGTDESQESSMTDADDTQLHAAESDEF
UniProt Q12834: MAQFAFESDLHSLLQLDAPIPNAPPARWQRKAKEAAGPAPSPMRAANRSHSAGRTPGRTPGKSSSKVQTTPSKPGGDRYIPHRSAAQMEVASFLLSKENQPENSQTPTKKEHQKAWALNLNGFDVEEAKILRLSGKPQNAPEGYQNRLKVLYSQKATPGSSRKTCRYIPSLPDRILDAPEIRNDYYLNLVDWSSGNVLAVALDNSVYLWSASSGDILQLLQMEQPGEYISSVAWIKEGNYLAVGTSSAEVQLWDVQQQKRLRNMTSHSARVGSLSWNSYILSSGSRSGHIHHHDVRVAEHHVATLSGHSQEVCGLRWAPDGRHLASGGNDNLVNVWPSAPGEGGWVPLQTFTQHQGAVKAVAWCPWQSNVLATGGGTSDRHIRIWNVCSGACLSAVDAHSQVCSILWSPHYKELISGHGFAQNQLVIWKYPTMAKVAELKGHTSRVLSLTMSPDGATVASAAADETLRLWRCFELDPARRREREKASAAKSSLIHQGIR
UniProt Q9UM11: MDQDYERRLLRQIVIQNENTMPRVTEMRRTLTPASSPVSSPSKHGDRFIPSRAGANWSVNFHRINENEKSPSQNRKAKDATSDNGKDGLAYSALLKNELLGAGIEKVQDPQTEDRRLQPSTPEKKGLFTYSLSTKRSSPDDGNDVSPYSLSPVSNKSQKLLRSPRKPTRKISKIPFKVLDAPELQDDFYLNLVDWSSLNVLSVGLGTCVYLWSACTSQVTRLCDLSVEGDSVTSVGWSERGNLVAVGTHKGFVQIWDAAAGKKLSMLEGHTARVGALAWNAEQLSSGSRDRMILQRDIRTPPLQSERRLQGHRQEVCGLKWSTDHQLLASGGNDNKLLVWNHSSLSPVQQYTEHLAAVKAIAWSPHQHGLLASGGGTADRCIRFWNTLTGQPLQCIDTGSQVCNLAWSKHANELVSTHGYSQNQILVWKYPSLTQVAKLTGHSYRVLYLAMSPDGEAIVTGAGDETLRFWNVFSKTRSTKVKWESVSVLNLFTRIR
UniProt Q13616: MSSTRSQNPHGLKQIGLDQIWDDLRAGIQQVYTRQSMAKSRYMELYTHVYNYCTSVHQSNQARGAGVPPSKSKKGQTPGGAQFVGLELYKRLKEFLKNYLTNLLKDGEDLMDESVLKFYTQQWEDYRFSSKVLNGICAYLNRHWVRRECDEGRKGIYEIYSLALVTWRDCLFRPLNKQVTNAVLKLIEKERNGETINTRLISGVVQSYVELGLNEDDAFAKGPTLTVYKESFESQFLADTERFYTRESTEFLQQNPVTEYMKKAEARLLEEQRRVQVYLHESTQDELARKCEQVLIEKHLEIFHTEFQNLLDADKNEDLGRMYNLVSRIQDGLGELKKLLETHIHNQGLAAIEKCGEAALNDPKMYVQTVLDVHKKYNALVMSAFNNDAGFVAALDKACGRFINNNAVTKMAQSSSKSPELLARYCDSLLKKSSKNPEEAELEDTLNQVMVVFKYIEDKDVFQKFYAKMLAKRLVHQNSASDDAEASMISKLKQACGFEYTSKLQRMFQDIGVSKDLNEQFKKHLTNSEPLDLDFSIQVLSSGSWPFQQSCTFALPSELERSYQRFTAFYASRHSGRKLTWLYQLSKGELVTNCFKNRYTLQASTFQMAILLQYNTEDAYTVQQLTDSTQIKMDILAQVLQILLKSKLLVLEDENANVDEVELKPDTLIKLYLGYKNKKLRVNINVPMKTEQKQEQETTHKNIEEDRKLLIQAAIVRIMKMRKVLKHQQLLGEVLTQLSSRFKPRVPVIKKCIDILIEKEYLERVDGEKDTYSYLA
UniProt Q13617: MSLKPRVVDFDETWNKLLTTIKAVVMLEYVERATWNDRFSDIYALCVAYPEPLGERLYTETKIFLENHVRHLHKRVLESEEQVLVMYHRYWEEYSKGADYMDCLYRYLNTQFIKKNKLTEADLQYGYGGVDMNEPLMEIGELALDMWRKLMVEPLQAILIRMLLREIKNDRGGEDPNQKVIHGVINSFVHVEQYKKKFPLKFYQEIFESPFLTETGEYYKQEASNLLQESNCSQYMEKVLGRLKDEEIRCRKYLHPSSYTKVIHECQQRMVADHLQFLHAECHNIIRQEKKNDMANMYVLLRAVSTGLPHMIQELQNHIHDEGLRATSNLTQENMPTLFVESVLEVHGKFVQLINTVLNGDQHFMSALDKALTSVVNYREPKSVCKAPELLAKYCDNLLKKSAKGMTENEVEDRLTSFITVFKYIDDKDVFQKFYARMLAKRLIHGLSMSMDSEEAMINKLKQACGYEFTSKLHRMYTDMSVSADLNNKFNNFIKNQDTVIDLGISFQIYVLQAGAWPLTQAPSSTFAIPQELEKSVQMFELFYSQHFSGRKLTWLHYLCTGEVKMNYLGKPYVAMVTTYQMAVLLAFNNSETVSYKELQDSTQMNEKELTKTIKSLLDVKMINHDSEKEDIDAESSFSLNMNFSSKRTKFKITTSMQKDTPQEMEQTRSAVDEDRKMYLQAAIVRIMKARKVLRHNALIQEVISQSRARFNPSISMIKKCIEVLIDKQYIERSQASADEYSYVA
UniProt Q93034: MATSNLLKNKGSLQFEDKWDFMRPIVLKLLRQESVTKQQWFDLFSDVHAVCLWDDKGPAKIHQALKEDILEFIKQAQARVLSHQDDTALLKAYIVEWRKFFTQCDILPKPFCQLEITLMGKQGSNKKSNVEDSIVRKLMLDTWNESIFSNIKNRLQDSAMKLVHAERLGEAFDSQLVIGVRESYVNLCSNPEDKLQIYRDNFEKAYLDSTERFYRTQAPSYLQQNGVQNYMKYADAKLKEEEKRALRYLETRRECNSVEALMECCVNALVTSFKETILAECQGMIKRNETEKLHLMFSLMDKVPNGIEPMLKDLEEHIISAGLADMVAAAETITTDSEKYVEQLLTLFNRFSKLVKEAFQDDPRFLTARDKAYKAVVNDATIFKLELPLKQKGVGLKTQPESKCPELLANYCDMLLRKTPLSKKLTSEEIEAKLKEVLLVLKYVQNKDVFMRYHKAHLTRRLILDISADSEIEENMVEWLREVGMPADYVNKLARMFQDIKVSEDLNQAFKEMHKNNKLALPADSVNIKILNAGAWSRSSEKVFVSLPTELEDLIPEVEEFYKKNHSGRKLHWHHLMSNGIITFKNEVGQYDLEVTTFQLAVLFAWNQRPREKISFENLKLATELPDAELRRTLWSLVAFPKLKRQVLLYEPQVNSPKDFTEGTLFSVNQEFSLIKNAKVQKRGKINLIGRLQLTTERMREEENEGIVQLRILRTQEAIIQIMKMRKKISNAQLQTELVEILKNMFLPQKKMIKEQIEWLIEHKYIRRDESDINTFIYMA

B1: FLAG-tagged wild-type (WT) borealin (protein, UniProt Q53HL2 1-280)
chain: MAPRKGSSRVAKTNSLRRRKLASFLKDFDREVEIRIKQIESDRQNLLKEVDNLYNIEILRLPKALREMNWLDYFALGGNKQALEEAATADLDITEINKLTAEAIQTPLKSAKTRKVIQVDEMIVEEEEEEENERKNLQTARVKRCPPSKKRTQSIQGKGKGKRSSRANTVTPAVGRLEVSMVKPTPGLTPRFDSRVFKTPGLRTPAAGERIYNISGNGSPLADSKEIFLTVPVGGGESLRLLASDLQRHSIAQLDPEALGNIKKLSNRLAQICSSIRTHK
binding (Cdc27): binds | binding (HA-tagged Cdc20): no binding | binding (HA-tagged Cdh1): binds | binding (Myc–CUL1): no binding | binding (Myc–CUL2): no binding | binding (Myc–CUL3): no binding | binding (Myc–CUL5): no binding

— PMC7520452
